Laboratory results reported in patent US20190144537A1.
Results are given in words; binding and its absence hold for the method and conditions named.

Sequences of proteins named here, by UniProt entry; tags and fusion partners are left off. Residues count along the entry.
UniProt Q04721, residues 26-1677: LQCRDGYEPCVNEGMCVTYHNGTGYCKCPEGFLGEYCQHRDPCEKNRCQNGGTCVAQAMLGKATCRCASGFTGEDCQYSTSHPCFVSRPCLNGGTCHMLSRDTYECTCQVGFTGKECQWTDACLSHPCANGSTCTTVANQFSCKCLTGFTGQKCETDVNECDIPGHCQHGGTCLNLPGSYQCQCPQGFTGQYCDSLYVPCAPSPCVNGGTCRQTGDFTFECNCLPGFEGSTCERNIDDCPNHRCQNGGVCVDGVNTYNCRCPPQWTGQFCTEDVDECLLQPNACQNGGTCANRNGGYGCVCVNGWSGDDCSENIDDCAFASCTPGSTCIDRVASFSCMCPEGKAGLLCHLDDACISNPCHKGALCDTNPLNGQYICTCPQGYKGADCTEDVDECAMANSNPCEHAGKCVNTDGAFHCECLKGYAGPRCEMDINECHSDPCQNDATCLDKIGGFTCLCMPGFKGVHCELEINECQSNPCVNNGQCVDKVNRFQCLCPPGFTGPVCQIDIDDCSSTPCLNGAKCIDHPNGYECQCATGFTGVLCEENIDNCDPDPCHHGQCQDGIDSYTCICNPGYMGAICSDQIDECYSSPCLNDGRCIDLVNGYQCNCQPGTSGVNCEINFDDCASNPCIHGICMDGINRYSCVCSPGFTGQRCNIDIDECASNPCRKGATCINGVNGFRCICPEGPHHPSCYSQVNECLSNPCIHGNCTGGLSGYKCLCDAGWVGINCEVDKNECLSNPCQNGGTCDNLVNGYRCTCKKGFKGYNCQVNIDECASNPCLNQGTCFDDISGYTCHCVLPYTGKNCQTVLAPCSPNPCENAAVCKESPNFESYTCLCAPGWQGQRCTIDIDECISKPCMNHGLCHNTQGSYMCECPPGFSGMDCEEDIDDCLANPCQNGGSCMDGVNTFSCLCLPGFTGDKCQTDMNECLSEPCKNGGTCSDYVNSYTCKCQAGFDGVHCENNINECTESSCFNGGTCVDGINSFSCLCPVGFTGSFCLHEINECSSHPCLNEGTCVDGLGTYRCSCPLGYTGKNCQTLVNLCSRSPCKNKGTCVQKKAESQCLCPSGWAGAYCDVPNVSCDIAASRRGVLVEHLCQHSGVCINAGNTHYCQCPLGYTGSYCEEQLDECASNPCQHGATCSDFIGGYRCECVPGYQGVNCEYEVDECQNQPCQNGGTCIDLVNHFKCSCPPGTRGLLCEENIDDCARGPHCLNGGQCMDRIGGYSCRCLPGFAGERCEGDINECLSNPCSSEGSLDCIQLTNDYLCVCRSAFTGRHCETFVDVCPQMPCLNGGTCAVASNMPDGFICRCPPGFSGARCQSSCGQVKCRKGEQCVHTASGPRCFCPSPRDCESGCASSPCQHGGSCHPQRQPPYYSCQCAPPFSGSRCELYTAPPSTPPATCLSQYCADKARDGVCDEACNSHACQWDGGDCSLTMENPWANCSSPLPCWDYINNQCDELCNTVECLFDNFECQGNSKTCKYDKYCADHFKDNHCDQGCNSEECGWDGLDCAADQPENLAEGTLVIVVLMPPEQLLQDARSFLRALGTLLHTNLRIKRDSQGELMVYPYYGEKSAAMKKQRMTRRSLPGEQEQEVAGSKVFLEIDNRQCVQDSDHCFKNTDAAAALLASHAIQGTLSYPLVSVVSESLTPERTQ
UniProt P46531, residues 19-1735: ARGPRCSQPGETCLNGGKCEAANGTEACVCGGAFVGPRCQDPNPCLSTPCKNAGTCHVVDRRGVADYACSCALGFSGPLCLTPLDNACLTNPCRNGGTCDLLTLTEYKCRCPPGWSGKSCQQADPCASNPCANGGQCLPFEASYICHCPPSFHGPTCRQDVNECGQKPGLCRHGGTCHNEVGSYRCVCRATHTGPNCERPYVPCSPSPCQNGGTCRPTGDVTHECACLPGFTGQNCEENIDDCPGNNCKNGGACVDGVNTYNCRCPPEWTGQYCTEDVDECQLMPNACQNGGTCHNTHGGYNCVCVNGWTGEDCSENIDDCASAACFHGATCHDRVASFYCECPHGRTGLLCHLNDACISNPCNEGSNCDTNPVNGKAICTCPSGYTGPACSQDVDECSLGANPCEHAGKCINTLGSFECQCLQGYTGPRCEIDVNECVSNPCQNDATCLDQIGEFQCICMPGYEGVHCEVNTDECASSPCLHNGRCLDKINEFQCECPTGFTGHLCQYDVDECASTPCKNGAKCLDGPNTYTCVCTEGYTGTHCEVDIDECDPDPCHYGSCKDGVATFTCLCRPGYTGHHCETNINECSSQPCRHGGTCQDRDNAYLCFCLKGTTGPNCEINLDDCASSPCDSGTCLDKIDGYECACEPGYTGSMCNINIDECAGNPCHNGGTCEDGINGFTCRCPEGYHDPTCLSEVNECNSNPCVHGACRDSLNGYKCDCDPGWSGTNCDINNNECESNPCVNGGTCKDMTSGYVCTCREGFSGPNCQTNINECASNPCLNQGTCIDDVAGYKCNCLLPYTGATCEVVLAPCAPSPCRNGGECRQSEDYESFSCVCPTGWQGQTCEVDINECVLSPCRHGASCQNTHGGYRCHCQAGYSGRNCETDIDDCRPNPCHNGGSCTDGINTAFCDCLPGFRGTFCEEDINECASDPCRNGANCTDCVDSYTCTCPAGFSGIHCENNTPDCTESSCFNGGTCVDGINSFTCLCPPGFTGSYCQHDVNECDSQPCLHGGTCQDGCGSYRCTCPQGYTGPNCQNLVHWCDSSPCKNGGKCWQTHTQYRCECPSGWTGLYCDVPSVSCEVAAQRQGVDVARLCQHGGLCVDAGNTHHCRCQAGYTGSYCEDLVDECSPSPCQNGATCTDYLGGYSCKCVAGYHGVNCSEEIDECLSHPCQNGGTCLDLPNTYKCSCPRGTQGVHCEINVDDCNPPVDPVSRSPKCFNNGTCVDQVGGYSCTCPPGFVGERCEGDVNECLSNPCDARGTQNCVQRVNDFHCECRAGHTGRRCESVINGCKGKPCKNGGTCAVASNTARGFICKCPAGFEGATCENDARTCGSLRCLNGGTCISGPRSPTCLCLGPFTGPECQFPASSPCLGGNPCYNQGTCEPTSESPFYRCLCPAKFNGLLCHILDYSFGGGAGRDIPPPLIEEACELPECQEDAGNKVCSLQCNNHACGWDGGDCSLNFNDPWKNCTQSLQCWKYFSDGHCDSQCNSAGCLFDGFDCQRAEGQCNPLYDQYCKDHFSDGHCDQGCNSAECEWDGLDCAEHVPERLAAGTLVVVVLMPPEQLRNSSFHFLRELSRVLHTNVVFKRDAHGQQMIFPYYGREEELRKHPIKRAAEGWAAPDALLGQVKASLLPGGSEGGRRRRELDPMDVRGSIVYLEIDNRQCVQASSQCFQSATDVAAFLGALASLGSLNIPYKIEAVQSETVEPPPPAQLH

Legend:
[1] = molecular target: rhNotch2-Fc (human) (UniProt Q04721); assay: condition: not printed on the sheet (the text gives a tested range of 3.125 to 100 nM); SPR (Biacore), 28042 captured as ligand, rhNotch2-Fc as sample at three dilutions, 25 C
[2] = molecular target: rhNotch2-Fc (human) (UniProt Q04721); assay: SPR (Biacore T100), antibody captured, Notch-Fc injected
[3] = molecular target: rhNotch1-Fc (human) (UniProt P46531); assay: as above
[4] = molecular target: rhNotch1-Fc (human) (UniProt P46531); assay: condition: not printed on the sheet (the text gives a tested range of 3.125 to 100 nM); SPR (Biacore), 28042 captured as ligand, rhNotch1-Fc as sample at three dilutions, 25 C

B1: 28042 antibody (antibody, human IgG1, kappa, V domains shown)
VH: EVQLLESGGGLVQPGGSLRLSCAASGFTFSDYMMSWVRQAPGKGLEWVSWIRSSGGTTLYADSVKGRFTISRDNSKNTLYLQMNSLRAEDTATYYCARVGGGTTGYAFDIWGQGTMVTVSS
VL: DIQMTQSPSSLSASVGDRVTITCRASQSISNYLNWYQQKPGKAPKLLIYGASSLQSGVPSRVSGTGSGTDFTLTISSLQPEDFATYYCQQSYSPSFTFGPGTKVDFER
B1 was tested, and the binding [1] was “no binding”, the binding [2] was “no binding (tested: 100 nM to 3.125 nM)” and the binding [3] was “no binding (tested: 100 nM to 3.125 nM)”. The binding [4] was “no binding”.
